Values from PubChem BioAssay AID1671195 (Yale University, 2021).
Aim: 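Knockdowns that increase or decrease uptake of fluorescent LDL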 (primary screen). Cell system: human Huh7 hepatoma cells. Reagents: siRNA pool against human genes, 18 nM. Time to read-out: about 2 to 2.5 days of knockdown, then 8 h LDL uptake. Conditions: DiI-labelled LDL at 30 µg/ml for 8 h, in lipoprotein-deficient serum medium. Measurement: 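Fluorescent LDL signal imaged in cells, scaled to the plate median, robust z-score for each replicate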. Scale: robust z-score: higher = more LDL uptake after knockdown. Rule for the call: 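a gene counts as active if at least two replicate z-scores exceed ±2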.
The whole screen tested about 22,000 reagents; this is a part drawn at random. About 1,510 of them (6.9%) count as active. 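Active includes knockdowns raising or lowering LDL uptake; positive z-scores mean more uptake, negative mean less.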

The first 7 records as a preview:
no.	Target gene	robust z-score, replicate 1	robust z-score, replicate 2	robust z-score, replicate 3	Outcome
1	ZSWIM9 (zinc finger SWIM-type containing 9)	-0.639	-0.842	-0.921	inactive
2	SH3RF2 (SH3 domain containing ring finger 2)	-0.237	0.486	-0.531	inactive
3	QTMAN (queuosine-tRNA mannosyltransferase)	0.225	-0.0114	-0.0283	inactive
4	INTS13 (integrator complex subunit 13)	0.339	0.178	0.417	inactive
5	LYVE1 (lymphatic vessel endothelial hyaluronan receptor 1)	-1.38	-0.9	-1.76	inactive
6	HSPA1A (heat shock protein family A (Hsp70) member 1A)	3.3	2.94	2.78	active
7	LOC402145 (retired record)	1.42	-0.587	0.402	inactive

Main list, from the start:
no.	Target gene	robust z-score, replicate 1	robust z-score, replicate 2	robust z-score, replicate 3	Outcome
1	ZSWIM9 (zinc finger SWIM-type containing 9)	-0.639	-0.842	-0.921	inactive
2	SH3RF2 (SH3 domain containing ring finger 2)	-0.237	0.486	-0.531	inactive
3	QTMAN (queuosine-tRNA mannosyltransferase)	0.225	-0.0114	-0.0283	inactive
4	INTS13 (integrator complex subunit 13)	0.339	0.178	0.417	inactive
5	LYVE1 (lymphatic vessel endothelial hyaluronan receptor 1)	-1.38	-0.9	-1.76	inactive
6	HSPA1A (heat shock protein family A (Hsp70) member 1A)	3.3	2.94	2.78	active
7	LOC402145 (retired record)	1.42	-0.587	0.402	inactive
8	KDM8 (lysine demethylase 8 (putative))	2.21	1.56	1.89	inactive
9	EPS8L3 (EPS8 signaling adaptor L3)	0.469	1.41	2.15	inactive
10	PMP22 (peripheral myelin protein 22)	-1.66	-1.43	-1.32	inactive
11	CNTN6 (contactin 6)	0.525	-0.142	-0.203	inactive
12	ZNF44 (zinc finger protein 44)	-0.114	0.0119	0.532	inactive
13	OR10K1 (olfactory receptor family 10 subfamily K member 1)	-0.442	0.555	0.324	inactive
14	EIF2AK4 (eukaryotic translation initiation factor 2 alpha kinase 4)	2.36	1.83	1.05	inactive
15	GPRC5D (G protein-coupled receptor class C group 5 member D)	-0.043	0.046	0.172	inactive
16	ZC3H3 (zinc finger CCCH-type containing 3)	0.463	-1.3	-0.442	inactive
17	ZNF883 (zinc finger protein 883)	-0.0623	-0.0781	0.896	inactive
18	LOC391360 (retired record)	1.44	0.666	0.562	inactive
19	RERE (arginine-glutamic acid dipeptide repeats)	-0.865	-0.166	-1.32	inactive
20	KIAA0753	0.185	0.563	-1.35	inactive
21	DHX36 (DEAH-box helicase 36)	-1.05	-0.47	-1.06	inactive
22	ADAMTS20 (ADAM metallopeptidase with thrombospondin type 1 motif 20)	1.82	1.86	1.54	inactive
23	KRT10 (keratin 10)	-0.292	-0.634	-1.1	inactive
24	PAQR5 (progestin and adipoQ receptor family member 5)	-0.639	0.615	-0.322	inactive
25	GNB1 (G protein subunit beta 1)	0.543	0.282	0.435	inactive
26	CENPB (centromere protein B)	0.544	1.27	0.943	inactive
27	ELF2 (E74 like ETS transcription factor 2)	2.89	2.1	4.02	active
28	VIRMA (vir like m6A methyltransferase associated)	1.33	0.0351	2.2	inactive
29	DBF4B (DBF4B-CDC7 kinase regulatory subunit)	-1.79	-2.28	-2.12	active
30	AMIGO2 (adhesion molecule with Ig like domain 2)	-0.427	-0.333	0.0528	inactive
31	ENTPD7 (ectonucleoside triphosphate diphosphohydrolase 7)	-1.51	-0.285	-0.189	inactive
32	DIS3L (DIS3 like exosome 3'-5' exoribonuclease)	-0.965	0.38	-0.0457	inactive
33	C16orf86 (chromosome 16 open reading frame 86)	-1.3	-1.33	-1.43	inactive
34	CASQ1 (calsequestrin 1)	-1.91	-1.73	-1.51	inactive
35	CTAGE6 (CTAGE family member 6)	0.963	1.04	1.31	inactive
36	WDR82P1 (WD repeat domain 82 pseudogene 1)	0.157	0.16	0.364	inactive
37	TTC39C (tetratricopeptide repeat domain 39C)	-1.59	-1.15	-1.47	inactive
38	AQP7P1 (aquaporin 7 pseudogene 1)	2.35	2	2.35	active
39	NKX3-2 (NK3 homeobox 2)	-0.355	-0.124	0.632	inactive
40	ZBTB22 (zinc finger and BTB domain containing 22)	1.63	0.515	0.779	inactive
41	CTSB (cathepsin B)	1.02	1.43	1.94	inactive
42	SRPK3 (SRSF protein kinase 3)	-1.22	-2.07	-2.03	active
43	PSME3IP1 (proteasome activator subunit 3 interacting protein 1)	0.496	0.646	0.384	inactive
44	ZNF555 (zinc finger protein 555)	2.28	1.47	4.07	active
45	PBDC1 (polysaccharide biosynthesis domain containing 1)	1.66	1.42	1.32	inactive
46	DDHD1 (DDHD domain containing 1)	-1.28	-1.39	-1.18	inactive
47	ANP32CP (acidic nuclear phosphoprotein 32 family member C, pseudogene)	-0.115	0.158	-0.362	inactive
48	HYAL3 (hyaluronidase 3)	0.129	-0.0317	0.0786	inactive
49	EFNB1 (ephrin B1)	-0.662	1.85	0.205	inactive
50	SVBP (small vasohibin binding protein)	-0.00184	0.607	0.208	inactive
51	DDX60 (DExD/H-box helicase 60)	-1.86	-0.67	-1.71	inactive
52	MYDGF (myeloid derived growth factor)	0.563	1.25	0.0223	inactive
53	ID2 (inhibitor of DNA binding 2)	2.25	2.42	2.41	active
54	LOC387706 (retired record)	-1.02	-0.997	-1.01	inactive
55	OR4P4 (olfactory receptor family 4 subfamily P member 4)	-0.258	-0.295	-0.767	inactive
56	LOC440080 (retired record)	0.144	0.228	0.431	inactive
57	ACRV1 (acrosomal vesicle protein 1)	0.603	-0.571	-0.468	inactive
58	TAF15 (TATA-box binding protein associated factor 15)	-0.822	-0.625	-0.85	inactive
59	LMNB2 (lamin B2)	-0.0469	-0.401	-1.03	inactive
60	UBL3 (ubiquitin like 3)	-1.03	1.01	-1.27	inactive
61	SYK (spleen associated tyrosine kinase)	-0.964	-1.37	-0.627	inactive
62	OR5V1 (olfactory receptor family 5 subfamily V member 1)	-2.54	-2.37	-2.3	active
63	ATPAF1 (ATP synthase mitochondrial F1 complex assembly factor 1)	-1.22	-1.16	-1.34	inactive
64	MAP3K9 (mitogen-activated protein kinase kinase kinase 9)	-2.76	-2.67	-2.81	active
65	FNTA (farnesyltransferase, CAAX box, subunit alpha)	-2.77	-1.5	-1.32	inactive
66	OR52E5 (olfactory receptor family 52 subfamily E member 5)	-0.206	-0.298	-0.432	inactive
67	SLC16A5	-0.96	-1.24	-0.752	inactive
68	SYMPK (symplekin scaffold protein)	1.39	1.22	1.48	inactive
